Assay results reported in patent publication US11993629 (dated 2024).
*: point of attachment. OBn = c1ccc(CO*)cc1; tBu = CC(C)(C)*

Experiment: general procedure: solution-phase peptide synthesis; isobutyl chloroformate/N-methylmorpholine; (1-cyano-2-ethoxy-2-oxoethylideneamin)

Substance	step yield (coupling step)	step yield (late stage modification step)	other results
CHBSoc-Phe-Ala-Ser(t-Bu)-Phe-OBn	Yield: 73%		
IPCSoc-Phe-Lys(Boc)-Asp(O(t-Bu))-Phe-Phe-Phe-OH		Yield: 99%	
IPCSoc-Phe-Lys(Boc)-Asp(O(t-Bu))-Phe-Phe-Phe-OBn	Yield: 73%		
H-FAS(tBu)F-OBn			step yield (late stage modification step, run 1): Yield: 98%; step yield (late stage modification step, run 2): Yield: 95%
H-Phe-Lys(Boc)-Asp(O(t-Bu))-Phe-Phe-Phe-OH		Yield: 74%	
H-Phe-Lys(Boc)-Asp(O(t-Bu))-Phe-Phe-Phe-OBn		Yield: 96%	
